Measurements taken from the supplement of paper PMC11732987, “Enantioselective OTUD7B fragment discovery through chemoproteomics screening and high-throughput optimisation” (Communications Chemistry, 2025).
This is one part of the list. The data scatter; read single values as rough.

Amino acid sequences for entries named in this document (tags omitted). A change or cut given only in a name is not applied to a line headed by its entry. Residues count along the entry.
UniProt Q96II8: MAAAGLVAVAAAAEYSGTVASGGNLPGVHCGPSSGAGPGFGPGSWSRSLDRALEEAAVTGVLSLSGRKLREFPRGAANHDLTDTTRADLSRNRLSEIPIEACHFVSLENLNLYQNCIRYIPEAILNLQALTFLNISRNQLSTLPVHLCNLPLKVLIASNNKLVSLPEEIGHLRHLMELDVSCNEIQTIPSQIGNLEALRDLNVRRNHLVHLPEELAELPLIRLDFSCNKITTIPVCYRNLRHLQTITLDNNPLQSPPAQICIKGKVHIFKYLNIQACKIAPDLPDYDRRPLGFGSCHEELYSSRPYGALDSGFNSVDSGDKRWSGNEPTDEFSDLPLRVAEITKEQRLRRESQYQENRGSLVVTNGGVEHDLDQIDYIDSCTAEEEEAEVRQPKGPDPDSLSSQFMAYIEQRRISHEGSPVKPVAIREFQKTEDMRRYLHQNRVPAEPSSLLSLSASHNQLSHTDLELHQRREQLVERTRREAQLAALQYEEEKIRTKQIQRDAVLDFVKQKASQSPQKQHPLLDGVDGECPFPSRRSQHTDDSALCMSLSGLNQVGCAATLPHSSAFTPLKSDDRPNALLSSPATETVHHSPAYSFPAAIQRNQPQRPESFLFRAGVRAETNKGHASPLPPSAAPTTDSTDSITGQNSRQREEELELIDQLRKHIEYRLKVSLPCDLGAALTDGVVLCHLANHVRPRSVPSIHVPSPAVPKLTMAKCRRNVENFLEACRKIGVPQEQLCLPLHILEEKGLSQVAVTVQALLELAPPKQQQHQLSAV
UniProt Q8NEZ4, 3744-3769: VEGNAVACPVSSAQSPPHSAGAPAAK
UniProt P49916: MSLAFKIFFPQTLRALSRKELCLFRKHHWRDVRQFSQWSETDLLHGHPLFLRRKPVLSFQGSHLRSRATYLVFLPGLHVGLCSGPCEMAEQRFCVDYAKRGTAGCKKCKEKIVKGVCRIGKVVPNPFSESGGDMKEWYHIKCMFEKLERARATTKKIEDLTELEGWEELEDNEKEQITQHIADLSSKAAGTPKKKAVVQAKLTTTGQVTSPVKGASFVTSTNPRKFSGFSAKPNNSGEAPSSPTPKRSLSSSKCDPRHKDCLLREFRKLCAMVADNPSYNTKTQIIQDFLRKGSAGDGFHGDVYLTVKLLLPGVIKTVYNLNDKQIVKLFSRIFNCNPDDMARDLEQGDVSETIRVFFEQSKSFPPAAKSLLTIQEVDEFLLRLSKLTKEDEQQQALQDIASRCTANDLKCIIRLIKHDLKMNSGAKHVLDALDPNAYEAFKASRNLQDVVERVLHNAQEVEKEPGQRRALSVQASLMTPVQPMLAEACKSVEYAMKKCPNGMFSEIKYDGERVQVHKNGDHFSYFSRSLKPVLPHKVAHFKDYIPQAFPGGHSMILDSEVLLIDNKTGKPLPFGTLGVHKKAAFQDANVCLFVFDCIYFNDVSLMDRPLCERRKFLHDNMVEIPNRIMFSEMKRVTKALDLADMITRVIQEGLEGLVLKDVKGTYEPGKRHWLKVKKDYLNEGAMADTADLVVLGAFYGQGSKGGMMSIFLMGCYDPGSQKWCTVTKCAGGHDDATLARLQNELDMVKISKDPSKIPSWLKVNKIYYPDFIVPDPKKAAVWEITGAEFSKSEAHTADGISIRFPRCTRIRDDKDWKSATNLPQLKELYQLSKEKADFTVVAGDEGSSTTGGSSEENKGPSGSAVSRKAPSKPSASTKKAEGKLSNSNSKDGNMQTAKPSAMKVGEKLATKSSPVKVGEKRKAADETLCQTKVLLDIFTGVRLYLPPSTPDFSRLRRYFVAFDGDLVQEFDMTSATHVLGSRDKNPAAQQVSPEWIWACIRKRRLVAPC
UniProt Q9NS86: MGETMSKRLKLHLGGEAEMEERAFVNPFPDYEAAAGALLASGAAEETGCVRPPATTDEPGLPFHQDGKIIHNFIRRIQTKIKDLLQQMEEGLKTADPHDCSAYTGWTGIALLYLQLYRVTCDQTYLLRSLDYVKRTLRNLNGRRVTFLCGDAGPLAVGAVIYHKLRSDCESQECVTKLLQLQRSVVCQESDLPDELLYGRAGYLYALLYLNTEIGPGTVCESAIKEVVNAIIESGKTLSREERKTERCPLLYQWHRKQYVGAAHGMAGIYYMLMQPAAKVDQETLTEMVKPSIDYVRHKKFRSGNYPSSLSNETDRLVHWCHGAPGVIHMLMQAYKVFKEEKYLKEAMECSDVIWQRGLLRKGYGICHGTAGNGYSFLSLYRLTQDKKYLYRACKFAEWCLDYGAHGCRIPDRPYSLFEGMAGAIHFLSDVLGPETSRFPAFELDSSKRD
UniProt P01130: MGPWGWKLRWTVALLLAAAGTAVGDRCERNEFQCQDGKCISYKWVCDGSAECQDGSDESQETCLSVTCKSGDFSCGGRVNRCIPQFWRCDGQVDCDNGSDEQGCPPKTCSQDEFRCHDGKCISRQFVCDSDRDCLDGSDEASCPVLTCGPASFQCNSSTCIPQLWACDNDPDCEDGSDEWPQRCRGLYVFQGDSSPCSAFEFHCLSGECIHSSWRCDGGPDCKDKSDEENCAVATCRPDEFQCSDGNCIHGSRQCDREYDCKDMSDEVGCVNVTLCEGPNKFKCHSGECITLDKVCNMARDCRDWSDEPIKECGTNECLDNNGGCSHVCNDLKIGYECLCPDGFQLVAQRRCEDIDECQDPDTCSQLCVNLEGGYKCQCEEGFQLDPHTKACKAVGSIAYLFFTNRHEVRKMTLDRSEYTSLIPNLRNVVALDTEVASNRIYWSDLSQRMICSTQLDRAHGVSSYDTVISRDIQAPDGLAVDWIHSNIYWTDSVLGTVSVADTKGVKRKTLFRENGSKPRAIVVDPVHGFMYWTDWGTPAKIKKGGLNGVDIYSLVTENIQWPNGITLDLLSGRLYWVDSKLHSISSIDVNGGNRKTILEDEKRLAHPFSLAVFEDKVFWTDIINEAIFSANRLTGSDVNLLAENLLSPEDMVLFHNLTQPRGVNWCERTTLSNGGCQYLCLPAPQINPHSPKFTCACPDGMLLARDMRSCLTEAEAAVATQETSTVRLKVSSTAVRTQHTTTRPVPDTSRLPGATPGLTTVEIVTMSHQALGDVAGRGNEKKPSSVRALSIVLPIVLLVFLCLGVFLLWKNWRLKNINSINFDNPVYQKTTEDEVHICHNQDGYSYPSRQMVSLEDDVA
UniProt O14910: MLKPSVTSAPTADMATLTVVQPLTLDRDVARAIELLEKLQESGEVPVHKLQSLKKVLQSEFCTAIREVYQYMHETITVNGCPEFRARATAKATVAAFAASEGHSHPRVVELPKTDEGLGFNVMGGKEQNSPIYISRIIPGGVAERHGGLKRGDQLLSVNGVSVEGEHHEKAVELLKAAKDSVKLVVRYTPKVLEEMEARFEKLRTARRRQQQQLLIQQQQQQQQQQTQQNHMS
UniProt Q9NVR0: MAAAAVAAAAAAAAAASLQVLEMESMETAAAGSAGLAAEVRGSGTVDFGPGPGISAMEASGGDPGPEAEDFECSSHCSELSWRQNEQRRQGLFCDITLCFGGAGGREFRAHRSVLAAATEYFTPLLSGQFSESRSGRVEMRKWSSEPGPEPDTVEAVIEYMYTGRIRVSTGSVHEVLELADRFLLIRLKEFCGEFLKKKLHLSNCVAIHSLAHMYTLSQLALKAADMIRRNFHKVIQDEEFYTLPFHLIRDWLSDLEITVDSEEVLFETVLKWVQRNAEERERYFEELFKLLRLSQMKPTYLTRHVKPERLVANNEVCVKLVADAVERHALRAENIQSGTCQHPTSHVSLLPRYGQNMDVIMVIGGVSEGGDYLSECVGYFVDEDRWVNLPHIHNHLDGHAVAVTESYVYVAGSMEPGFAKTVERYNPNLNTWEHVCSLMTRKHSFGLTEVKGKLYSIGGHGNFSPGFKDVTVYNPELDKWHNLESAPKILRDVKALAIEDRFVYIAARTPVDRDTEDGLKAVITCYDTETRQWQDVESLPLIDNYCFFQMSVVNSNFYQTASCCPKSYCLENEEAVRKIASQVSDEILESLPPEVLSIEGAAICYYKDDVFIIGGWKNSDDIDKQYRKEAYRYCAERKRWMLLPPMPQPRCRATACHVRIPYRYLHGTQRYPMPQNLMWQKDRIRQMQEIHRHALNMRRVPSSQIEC
UniProt P53667: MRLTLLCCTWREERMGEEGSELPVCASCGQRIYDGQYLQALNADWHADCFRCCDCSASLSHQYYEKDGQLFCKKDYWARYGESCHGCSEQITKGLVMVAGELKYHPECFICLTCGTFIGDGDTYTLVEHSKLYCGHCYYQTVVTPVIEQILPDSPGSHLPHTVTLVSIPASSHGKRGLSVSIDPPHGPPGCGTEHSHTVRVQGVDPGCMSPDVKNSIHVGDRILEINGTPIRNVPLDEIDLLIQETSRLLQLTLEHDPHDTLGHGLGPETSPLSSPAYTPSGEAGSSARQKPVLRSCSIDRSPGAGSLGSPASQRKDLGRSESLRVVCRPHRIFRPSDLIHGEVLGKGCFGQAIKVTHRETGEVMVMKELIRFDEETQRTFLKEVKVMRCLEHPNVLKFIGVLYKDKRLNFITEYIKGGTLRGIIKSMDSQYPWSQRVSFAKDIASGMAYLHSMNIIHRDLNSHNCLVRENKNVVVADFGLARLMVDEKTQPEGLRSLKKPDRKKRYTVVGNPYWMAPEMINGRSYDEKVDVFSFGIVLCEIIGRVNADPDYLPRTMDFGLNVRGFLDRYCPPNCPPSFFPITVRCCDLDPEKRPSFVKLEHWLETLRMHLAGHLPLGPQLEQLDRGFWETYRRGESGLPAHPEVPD
UniProt Q9Y2U8: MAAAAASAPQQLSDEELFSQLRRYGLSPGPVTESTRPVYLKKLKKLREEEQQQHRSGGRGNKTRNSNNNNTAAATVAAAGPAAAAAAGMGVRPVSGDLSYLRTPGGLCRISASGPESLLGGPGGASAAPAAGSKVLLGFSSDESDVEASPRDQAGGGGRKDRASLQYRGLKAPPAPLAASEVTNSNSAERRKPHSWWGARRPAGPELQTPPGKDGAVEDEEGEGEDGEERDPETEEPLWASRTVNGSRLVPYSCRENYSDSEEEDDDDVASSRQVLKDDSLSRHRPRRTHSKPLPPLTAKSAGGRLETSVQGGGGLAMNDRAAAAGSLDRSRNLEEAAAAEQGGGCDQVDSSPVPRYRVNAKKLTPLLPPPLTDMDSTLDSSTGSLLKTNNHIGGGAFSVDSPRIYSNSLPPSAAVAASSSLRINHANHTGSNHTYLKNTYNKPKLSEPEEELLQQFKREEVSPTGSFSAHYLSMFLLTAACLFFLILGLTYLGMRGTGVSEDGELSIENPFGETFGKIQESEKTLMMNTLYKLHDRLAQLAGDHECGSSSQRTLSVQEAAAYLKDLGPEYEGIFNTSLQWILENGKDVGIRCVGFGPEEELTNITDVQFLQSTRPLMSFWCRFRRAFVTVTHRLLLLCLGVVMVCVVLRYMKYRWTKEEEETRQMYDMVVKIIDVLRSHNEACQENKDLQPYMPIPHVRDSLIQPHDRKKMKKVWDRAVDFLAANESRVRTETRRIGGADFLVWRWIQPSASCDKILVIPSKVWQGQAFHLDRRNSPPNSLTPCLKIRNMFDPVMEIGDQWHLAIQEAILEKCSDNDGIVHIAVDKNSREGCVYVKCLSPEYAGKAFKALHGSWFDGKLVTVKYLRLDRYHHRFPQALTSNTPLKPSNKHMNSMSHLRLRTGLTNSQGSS
UniProt P13796: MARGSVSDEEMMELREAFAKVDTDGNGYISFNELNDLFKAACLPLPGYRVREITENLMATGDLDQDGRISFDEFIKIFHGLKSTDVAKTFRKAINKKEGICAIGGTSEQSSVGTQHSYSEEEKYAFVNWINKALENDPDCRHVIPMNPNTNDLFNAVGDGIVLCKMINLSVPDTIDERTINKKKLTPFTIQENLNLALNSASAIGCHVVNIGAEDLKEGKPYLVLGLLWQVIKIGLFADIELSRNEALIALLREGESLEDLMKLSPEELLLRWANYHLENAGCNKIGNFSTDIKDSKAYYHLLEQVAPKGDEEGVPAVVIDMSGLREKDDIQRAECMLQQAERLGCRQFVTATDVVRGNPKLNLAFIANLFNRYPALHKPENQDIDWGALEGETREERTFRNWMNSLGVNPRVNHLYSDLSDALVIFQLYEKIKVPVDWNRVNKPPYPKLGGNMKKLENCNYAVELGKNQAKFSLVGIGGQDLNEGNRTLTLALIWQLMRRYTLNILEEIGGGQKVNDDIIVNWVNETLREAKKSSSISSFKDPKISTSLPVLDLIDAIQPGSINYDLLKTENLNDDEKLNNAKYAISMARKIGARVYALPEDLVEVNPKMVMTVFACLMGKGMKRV
UniProt Q9NUP9: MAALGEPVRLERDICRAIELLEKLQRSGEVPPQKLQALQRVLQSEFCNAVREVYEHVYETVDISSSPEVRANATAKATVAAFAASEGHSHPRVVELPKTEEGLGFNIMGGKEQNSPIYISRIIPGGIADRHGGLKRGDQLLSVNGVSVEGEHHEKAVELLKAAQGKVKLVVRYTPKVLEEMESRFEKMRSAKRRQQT

Columns and labels:
[1] = compound: ClCC(=O)N[C@@H]1CCCc2ccccc12; assay: log2 mean competition ratio of IA-DTB cysteine labelling (DMSO/compound) (log2 ratio); higher = stronger cysteine engagement by compound; conditions: treatment time: 4 h, cell line lysate: HEK293T
Description: (§1)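 IA-DTB competitive cysteine chemoproteomics in HEK293T RIPA lysate. Lysates were treated with compound 29 or 30 at 50 or 200 µM for 4 h, then IA-DTB (500 µM, 1 h), trypsin-digested, NeutrAvidin-enriched and analysed by diaPASEF. Competition ratio = intensity DMSO / intensity compound (n=4 treated, n=64 DMSO); binding: mean log2 CR ≥ 1 and p ≤ 0.05 plus QC filters. Target is the cysteine site.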

[2] = compound: ClCC(=O)N[C@H]1CCCc2ccccc12; assay: as above; conditions: treatment time: 4 h, cell line lysate: HEK293T
Description: as §1

| Target | log2 mean competition ratio ([1]; 50 µM) | log2 mean competition ratio ([1]; 200 µM) | log2 mean competition ratio ([2]; 50 µM) | log2 mean competition ratio ([2]; 200 µM) |
| --- | --- | --- | --- | --- |
| LDHA C163 | 0.38 | 0.178 | 0.153 | 0.239 |
| LRCH3 C227 (UniProt Q96II8) | -0.123 | 0.144 | 0.0835 | 0.188 |
| LRPPRC C927 | -0.133 | 0.0456 | -0.184 | 0.0836 |
| KMT2C C3751 (UniProt Q8NEZ4) | 0.388 | -0.557 | 0.0279 | -0.286 |
| LIG3 C929 (UniProt P49916) | -0.117 | 0.0443 | -0.0815 | 0.0786 |
| LLGL1 C505 (UniProt Q15334) | -0.0576 | 0.135 | -0.157 | 0.189 |
| LARS1 C573 | 0.316 | 0.482 | 0.38 | 0.295 |
| LANCL2 C187 (UniProt Q9NS86) | -0.241 | 0.0957 | -0.144 | 0.0553 |
| LRPPRC C1043 | 0.313 | -0.0255 | 0.804 | -0.0197 |
| LRATD2 C208 | -0.00459 | -0.221 | 0.502 | -0.0821 |
| LDLR C667 (UniProt P01130) | -0.21 | 0.108 | 0.269 | 0.404 |
| LIN7A C62 (UniProt O14910) | 0.0952 | -0.127 | 0.0289 | -0.137 |
| LACTB C476 (UniProt P83111) | -0.187 | 0.268 | 0.0055 | 0.297 |
| KLHL11 C318 (UniProt Q9NVR0) | -0.0354 | 0.137 | 0.167 | 0.267 |
| LIMK1 C349 (UniProt P53667) | -0.198 | -0.245 | 0.0141 | -0.253 |
| KNTC1 C683 (UniProt P50748) | 0.262 | 1.12 | 0.37 | 0.681 |
| LEMD3 C108 (UniProt Q9Y2U8) | -0.0369 | 0.0516 | 0.213 | 0.18 |
| KMT2D C369 (UniProt O14686) | -0.114 | 0.0988 | -0.118 | 0.0041 |
| LCP1 C42 (UniProt P13796) | 0.132 | 0.245 | -0.152 | 0.16 |
| LIN7C C47 (UniProt Q9NUP9) | 0.22 | 0.00976 | 0.129 | 0.0663 |
| KMT2A C1575 (UniProt Q03164) | 0.0662 | 0.452 | -0.607 | 0.253 |

Part of the list above in a different format.
Target | log2 mean competition ratio ([1]; 50 µM) | log2 mean competition ratio ([1]; 200 µM) | log2 mean competition ratio ([2]; 50 µM) | log2 mean competition ratio ([2]; 200 µM)
LRATD2 C208 | -0.00459 | -0.221 | 0.502 | -0.0821
LDLR C667 (UniProt P01130) | -0.21 | 0.108 | 0.269 | 0.404
